The text below walks through data of US20140058103A1, “Inhibitors of PI3K-Delta and Methods of Their Use and Manufacture” (Exelixis, Inc., priority 2010, published 2014).

Amino acid sequences for entries named in this document (tags omitted).
UniProt O00329, whole entry: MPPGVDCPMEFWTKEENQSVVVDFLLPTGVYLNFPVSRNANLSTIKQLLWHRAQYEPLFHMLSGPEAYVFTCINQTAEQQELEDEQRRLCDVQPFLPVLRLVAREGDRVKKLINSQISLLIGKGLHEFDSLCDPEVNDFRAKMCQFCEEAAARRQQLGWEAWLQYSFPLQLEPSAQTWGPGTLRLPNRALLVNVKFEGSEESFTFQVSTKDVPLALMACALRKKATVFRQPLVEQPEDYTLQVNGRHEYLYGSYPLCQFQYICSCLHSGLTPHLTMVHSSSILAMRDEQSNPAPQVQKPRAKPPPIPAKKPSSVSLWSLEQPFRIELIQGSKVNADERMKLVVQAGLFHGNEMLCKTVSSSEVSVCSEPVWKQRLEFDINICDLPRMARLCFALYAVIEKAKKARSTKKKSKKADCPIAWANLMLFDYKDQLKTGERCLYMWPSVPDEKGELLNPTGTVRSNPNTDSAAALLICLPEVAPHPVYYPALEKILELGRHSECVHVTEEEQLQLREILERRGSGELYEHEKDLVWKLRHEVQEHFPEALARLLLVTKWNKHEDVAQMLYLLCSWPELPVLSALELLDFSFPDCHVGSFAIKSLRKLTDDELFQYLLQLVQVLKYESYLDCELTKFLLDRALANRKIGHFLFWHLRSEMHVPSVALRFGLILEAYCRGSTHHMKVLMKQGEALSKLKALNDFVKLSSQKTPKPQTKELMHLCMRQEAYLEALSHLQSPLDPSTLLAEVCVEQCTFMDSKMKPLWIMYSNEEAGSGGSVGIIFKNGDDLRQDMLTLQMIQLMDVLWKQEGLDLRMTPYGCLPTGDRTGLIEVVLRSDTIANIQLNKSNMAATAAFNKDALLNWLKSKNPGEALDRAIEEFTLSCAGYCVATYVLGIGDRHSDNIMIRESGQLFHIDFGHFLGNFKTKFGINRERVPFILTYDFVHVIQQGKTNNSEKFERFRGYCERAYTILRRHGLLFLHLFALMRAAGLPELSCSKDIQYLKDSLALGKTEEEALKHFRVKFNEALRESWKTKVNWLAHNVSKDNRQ
UniProt P27986, whole entry partner: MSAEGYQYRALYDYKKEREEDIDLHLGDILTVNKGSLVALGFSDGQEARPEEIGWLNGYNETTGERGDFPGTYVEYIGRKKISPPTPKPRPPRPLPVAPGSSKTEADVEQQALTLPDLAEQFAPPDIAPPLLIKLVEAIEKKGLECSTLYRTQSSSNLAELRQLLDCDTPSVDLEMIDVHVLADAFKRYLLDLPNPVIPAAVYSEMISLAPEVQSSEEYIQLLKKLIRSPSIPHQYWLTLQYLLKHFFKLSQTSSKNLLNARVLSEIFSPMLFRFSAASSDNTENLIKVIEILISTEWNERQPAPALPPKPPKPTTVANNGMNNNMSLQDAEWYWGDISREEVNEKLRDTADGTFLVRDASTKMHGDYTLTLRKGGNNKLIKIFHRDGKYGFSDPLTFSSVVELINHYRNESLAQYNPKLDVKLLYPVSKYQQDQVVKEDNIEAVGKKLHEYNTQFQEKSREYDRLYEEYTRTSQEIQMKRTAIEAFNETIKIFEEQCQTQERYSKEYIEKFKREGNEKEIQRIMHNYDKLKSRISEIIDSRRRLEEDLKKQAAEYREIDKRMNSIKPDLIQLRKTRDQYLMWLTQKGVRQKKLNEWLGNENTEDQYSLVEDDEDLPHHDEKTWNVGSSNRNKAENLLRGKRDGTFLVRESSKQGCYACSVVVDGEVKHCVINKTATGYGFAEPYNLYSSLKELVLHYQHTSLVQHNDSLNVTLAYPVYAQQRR

The match of structure and compound is tentative.

This assay deals with PI3K delta (Homo sapiens, UniProt O00329). Kind of assay: Luciferase-coupled chemiluminescence kinase assay (ATP consumption, KinaseGlo). The following applies: read-out: PI3K Delta Activity IC50. On the technique in general: In Kinase-Glo more light means more ATP remaining.
For `CCn1c(-c2cn[nH]c2)nc2c(N3CCC(n4c(=O)[nH]c5ccccc54)CC3)ncnc21`, the IC50 was below 50 nM.
Under `COc1cccc2c1[nH]c(=O)n2C1CCN(c2ncnc3c2nc(C(=O)NCC2CC2)n3C)CC1` stands 50 to 250 nM.
As to `COc1ccc(S(=O)(=O)N2CCN(c3ncnc4c3nc(-c3cnn(C)c3)n4C)CC2)cc1`, the IC50 was in the range of 500 to 1500 nM.
On to `Cc1ccc(-n2ncc3c2CCN(c2ncnc4c2nc(C(=O)NCC2CC2)n4C)C3)c(C)c1`, for which the IC50 is 500 to 1500 nM.
Under `Cc1cccc(C)c1-n1ncc2c1CCN(c1ncnc3c1nc(C(=O)NCC1CC1)n3C)C2` stands 500 to 1500 nM.
Under `Cc1ccccc1-n1ncc2c1CCN(c1ncnc3c1nc(C(=O)NCC1CC1)n3C)C2` stands 500 to 1500 nM.
Under `CCCn1cc(-c2nc3c(N4CCC(n5c(=O)[nH]c6ccccc65)CC4)ncnc3n2CC)cn1` stands below 50 nM.
`Cc1c(-c2nc3c(N4CCC(n5c(=O)[nH]c6c(F)cccc65)CC4)ncnc3n2C)cnn1C`: the IC50 is below 50 nM.
`Cn1c(-c2cn[nH]c2)nc2c(N3CCC(n4c(=O)[nH]c5ccccc54)CC3)ncnc21`: the IC50 is below 50 nM.
Next, `CC1CN(c2ncnc3c2nc(C(=O)NCC2CC2)n3C)CCC1n1c(=O)[nH]c2ccccc21` (stereo not shown): 50 to 250 nM.
Next, `Cc1cccc(-n2ncc3c2CCN(c2ncnc4c2nc(C(=O)NCC2CC2)n4C)C3)c1`: 500 to 1500 nM; `CN(C)c1ccc(-c2nc3c(N4CCC(n5c(=O)[nH]c6ccccc65)CC4)ncnc3n2C)cn1`: below 50 nM; `CN1CCN(c2cccc3c2[nH]c(=O)n3C2CCN(c3ncnc4c3nc(C(=O)NCC3CC3)n4C)CC2)CC1`: 50 to 250 nM.
